In the supplement of paper PMC10849652:
The list shows a part of the results.

Amino acid sequences for entries named in this document (tags omitted). A change or cut given only in a name is not applied to a line headed by its entry.
UniProt O60271: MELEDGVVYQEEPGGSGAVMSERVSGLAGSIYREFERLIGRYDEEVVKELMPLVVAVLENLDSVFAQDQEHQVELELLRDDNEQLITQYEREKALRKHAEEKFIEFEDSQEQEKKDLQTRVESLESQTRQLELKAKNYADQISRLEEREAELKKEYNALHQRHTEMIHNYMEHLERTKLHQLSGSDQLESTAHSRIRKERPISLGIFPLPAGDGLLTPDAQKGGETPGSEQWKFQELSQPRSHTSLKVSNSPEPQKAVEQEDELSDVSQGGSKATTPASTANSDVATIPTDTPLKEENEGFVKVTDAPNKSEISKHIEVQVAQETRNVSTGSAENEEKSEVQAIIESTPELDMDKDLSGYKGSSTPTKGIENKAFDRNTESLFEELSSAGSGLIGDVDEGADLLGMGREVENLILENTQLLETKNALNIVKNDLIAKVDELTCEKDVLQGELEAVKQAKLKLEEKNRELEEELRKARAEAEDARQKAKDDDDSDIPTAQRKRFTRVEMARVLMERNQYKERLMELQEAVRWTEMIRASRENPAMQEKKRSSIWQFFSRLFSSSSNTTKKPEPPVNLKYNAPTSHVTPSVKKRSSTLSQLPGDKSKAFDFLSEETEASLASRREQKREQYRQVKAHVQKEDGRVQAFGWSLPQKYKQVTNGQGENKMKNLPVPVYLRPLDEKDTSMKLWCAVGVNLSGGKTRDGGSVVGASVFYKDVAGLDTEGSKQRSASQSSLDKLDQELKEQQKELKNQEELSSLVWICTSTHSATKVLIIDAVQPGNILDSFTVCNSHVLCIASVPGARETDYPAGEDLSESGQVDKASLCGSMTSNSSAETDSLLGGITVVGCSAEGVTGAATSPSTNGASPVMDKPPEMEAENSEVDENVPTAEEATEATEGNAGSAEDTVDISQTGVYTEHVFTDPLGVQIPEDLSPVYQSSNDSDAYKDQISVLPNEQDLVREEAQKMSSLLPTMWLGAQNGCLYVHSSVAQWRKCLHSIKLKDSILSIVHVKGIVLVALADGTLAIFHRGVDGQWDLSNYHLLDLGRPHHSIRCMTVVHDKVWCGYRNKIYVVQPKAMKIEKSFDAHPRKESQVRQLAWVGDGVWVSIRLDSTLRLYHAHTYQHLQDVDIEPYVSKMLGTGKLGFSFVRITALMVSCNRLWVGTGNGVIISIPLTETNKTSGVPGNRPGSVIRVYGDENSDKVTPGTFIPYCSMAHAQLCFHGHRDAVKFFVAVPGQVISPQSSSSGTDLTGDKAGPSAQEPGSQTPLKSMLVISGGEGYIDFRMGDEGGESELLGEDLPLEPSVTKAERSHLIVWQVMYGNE
UniProt Q9Y5W7: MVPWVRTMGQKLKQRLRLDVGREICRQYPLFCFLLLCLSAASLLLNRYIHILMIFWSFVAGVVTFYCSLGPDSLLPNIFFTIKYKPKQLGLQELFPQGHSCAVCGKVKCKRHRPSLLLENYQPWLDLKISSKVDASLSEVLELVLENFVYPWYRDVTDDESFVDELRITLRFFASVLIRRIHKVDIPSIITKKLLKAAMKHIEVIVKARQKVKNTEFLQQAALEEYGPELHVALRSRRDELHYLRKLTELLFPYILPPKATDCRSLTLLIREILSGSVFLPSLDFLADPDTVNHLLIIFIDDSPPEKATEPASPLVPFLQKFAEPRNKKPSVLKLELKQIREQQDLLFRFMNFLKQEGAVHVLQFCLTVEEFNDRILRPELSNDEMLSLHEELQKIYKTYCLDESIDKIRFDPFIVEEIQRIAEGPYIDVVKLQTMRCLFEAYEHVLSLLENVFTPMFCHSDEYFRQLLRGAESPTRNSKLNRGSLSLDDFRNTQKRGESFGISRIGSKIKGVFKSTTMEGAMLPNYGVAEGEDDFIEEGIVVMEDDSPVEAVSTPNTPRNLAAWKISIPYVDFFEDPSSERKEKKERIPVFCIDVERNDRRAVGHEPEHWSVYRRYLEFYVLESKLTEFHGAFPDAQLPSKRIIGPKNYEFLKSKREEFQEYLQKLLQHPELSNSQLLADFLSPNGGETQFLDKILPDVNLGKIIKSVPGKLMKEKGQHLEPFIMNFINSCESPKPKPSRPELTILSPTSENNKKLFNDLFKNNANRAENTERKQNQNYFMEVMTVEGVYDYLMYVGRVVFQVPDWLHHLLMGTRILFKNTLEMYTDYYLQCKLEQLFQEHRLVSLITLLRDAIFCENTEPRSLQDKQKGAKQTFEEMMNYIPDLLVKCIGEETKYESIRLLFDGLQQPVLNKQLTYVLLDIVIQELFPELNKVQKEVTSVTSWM
UniProt Q02086: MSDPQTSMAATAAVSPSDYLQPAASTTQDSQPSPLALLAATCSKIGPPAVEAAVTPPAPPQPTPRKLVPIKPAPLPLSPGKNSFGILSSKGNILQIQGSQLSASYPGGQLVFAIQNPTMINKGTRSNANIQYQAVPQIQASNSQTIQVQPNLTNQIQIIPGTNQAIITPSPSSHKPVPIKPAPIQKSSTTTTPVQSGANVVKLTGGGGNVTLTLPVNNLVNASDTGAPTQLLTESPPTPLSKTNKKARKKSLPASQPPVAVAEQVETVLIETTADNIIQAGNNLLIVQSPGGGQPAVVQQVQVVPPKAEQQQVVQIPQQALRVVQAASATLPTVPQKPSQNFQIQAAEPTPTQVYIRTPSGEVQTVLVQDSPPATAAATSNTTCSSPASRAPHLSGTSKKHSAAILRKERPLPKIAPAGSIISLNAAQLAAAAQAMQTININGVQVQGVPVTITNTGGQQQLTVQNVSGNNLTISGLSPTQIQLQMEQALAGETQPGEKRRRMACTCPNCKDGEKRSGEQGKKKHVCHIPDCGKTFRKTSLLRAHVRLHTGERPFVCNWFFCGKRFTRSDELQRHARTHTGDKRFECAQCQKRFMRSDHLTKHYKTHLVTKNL
UniProt Q13596, whole entry, looked up: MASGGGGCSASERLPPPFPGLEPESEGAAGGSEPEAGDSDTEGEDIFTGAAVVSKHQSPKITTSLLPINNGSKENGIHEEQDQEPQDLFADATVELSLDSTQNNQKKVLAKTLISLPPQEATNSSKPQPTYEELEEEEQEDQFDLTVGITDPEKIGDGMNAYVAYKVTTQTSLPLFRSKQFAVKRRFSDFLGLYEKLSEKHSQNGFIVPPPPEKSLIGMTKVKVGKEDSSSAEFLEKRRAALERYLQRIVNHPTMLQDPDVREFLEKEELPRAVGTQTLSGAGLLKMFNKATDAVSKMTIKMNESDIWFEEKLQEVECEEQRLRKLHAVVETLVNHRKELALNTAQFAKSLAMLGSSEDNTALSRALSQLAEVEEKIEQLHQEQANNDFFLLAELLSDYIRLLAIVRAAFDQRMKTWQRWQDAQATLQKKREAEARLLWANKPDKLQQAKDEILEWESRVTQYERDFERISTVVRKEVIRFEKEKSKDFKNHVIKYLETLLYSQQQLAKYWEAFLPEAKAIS
UniProt P18583: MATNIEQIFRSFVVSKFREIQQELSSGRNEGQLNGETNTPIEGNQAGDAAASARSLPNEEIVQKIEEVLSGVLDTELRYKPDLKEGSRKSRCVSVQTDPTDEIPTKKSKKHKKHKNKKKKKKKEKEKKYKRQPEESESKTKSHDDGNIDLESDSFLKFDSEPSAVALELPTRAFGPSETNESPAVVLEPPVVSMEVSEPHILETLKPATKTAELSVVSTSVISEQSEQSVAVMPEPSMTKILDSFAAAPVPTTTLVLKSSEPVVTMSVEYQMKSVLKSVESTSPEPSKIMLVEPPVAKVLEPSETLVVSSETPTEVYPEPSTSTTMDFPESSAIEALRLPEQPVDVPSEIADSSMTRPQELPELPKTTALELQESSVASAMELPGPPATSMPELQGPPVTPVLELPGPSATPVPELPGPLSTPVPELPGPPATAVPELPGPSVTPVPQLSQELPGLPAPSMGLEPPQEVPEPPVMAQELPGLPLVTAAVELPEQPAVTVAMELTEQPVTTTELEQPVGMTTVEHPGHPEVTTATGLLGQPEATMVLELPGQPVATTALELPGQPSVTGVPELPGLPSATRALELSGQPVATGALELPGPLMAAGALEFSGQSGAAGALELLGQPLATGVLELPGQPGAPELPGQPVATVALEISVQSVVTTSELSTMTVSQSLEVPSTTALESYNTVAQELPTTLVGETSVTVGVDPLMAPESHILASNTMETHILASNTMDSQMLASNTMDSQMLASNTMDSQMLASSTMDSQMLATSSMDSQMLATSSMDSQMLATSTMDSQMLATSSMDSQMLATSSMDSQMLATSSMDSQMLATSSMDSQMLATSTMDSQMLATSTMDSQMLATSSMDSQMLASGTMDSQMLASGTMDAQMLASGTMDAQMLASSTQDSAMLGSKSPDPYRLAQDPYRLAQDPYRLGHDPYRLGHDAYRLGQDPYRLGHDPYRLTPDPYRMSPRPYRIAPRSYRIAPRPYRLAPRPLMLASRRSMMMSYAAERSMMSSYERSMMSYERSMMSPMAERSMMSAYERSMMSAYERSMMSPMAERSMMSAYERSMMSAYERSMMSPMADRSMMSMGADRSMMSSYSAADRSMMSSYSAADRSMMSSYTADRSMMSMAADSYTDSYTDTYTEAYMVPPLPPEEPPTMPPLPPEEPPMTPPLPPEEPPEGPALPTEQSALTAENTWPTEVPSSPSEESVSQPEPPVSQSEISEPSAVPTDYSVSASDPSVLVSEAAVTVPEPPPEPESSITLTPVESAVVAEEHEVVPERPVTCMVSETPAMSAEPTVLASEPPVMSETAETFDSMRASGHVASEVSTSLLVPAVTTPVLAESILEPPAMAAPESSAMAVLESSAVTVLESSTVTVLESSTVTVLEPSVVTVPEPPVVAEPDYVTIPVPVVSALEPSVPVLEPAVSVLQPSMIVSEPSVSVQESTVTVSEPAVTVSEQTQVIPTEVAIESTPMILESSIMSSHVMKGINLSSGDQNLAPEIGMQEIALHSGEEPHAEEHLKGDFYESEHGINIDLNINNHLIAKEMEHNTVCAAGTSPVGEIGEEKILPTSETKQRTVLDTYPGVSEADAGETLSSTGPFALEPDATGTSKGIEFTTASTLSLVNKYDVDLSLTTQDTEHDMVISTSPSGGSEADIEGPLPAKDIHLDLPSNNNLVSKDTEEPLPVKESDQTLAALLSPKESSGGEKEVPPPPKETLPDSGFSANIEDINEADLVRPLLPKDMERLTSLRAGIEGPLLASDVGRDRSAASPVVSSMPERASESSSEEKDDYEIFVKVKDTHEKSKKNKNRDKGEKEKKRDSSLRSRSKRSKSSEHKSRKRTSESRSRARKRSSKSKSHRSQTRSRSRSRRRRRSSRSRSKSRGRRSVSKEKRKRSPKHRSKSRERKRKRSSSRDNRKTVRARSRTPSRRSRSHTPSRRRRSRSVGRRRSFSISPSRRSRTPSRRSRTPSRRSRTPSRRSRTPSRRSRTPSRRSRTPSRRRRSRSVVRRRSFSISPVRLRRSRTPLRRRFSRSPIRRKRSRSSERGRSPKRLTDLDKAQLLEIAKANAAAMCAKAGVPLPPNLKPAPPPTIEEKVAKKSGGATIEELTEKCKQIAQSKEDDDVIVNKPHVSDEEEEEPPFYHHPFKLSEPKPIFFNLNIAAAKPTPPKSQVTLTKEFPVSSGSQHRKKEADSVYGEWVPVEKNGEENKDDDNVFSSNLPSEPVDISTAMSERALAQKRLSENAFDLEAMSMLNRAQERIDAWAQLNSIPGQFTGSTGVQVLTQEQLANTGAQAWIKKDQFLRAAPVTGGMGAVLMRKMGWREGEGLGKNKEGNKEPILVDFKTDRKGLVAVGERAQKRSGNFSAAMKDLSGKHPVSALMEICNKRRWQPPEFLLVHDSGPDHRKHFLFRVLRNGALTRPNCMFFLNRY
UniProt Q9NRH2: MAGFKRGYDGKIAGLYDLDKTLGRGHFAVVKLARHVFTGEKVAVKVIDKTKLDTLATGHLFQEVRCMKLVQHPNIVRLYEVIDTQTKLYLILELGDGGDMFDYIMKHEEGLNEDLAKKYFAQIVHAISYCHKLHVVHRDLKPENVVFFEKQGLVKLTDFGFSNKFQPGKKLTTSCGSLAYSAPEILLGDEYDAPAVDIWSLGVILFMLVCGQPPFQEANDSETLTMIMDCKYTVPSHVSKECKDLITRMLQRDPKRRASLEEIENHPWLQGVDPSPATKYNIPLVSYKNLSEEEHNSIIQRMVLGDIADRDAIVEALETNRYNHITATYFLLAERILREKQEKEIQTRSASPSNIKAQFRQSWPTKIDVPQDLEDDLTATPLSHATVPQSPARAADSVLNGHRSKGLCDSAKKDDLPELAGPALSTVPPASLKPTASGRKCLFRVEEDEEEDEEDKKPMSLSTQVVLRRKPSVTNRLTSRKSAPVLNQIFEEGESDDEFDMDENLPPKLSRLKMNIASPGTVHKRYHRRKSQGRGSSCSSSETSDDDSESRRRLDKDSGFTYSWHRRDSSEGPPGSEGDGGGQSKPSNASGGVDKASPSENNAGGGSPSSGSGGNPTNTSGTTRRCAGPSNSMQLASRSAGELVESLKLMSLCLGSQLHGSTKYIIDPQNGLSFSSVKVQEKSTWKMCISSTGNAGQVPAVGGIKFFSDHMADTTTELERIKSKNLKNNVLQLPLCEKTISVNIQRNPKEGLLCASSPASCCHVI

Tests used:
Assay in all cases: log2 fold change, soluble protein after heating vs DMSO (PISA); higher = thermal stabilisation; K562 cells, 10 uM, 30 min; active = over 0.2 and 3.5 SD of the protein, either way, in both replicates (recomputed)
[1] = compound: CS(=O)(=O)c1ccc(-c2cnc(N)c(C(=O)Nc3ccccc3)n2)cc1
Summary of the method: (§1)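 Soluble protein was quantified by TMTpro 16plex LC-MS/MS after channel sums were equalised. It was obtained as the supernatant after 21,000xg for 90 min from pooled aliquots of K562 cells (2×10^6 cells/mL, 10 μM compound, 30 min) heated for 3 min across 48°C-58°C and extracted in PBS with 0.5% NP-40 at 4°C. Thermal stability values are relative to control samples and come from duplicates. They are given as log2 fold changes.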

[2] = compound: C[C@@H]1COCCN1C2=NC(=NC(=C2)C3(CC3)S(=O)(=O)C)C4=C5C=CNC5=CC=C4
Summary of the method: as §1

[3] = compound: C[C@H](C1=CC=C(C=C1)C(=O)NC2=C3C=CNC3=NC=C2)N
Summary of the method: as §1

gandotinib = compound: Cc1cc(Nc2cc(CN3CCOCC3)c3nc(C)c(Cc4ccc(Cl)cc4F)n3n2)n[nH]1 [gandotinib]
Summary of the method: as §1

[4] = compound: Cc1cc(SCc2sc(-c3ccc(C(F)(F)F)cc3)nc2C)ccc1OCC(=O)O
Summary of the method: as §1

ispinesib = compound: Cc1ccc(C(=O)N(CCCN)[C@@H](c2nc3cc(Cl)ccc3c(=O)n2Cc2ccccc2)C(C)C)cc1 [ispinesib]
Summary of the method: as §1

bafetinib = compound: Cc1ccc(NC(=O)c2ccc(CN3CC[C@H](N(C)C)C3)c(C(F)(F)F)c2)cc1Nc1nccc(-c2cncnc2)n1 [bafetinib]
Summary of the method: as §1

[5] = compound: Cc1cccc(CC(=O)N2CCc3c2ccc(-c2cn(C)c4ncnc(N)c24)c3F)n1
Summary of the method: as §1

nilotinib = compound: Cc1cn(-c2cc(NC(=O)c3ccc(C)c(Nc4nccc(-c5cccnc5)n4)c3)cc(C(F)(F)F)c2)cn1 [nilotinib]
Summary of the method: as §1

[6] = compound: Cc1nc(Nc2n[nH]c3c2CN(C(=O)N[C@H](CN(C)C)c2ccccc2)C3(C)C)c2sccc2n1
Summary of the method: as §1

dasatinib = compound: Cc1nc(Nc2ncc(C(=O)Nc3c(C)cccc3Cl)s2)cc(N2CCN(CCO)CC2)n1 [dasatinib]
Summary of the method: as §1

[7] = compound: Cc1ncc(-c2ccnc(Nc3ccc(S(C)(=O)=O)cc3)n2)n1C(C)C
Summary of the method: as §1

[8] = compound: Cn1cc(-c2ccc3c(c2)CCN3C(=O)Cc2cccc(C(F)(F)F)c2)c2c(N)ncnc21
Summary of the method: as §1

[9] = compound: Cn1cc(-c2ccc3nnc(C(F)(F)c4ccc5ncccc5c4)n3n2)cn1
Summary of the method: as §1

tipifarnib = compound: Cn1cncc1[C@@](N)(c1ccc(Cl)cc1)c1ccc2c(c1)c(-c1cccc(Cl)c1)cc(=O)n2C [tipifarnib]
Summary of the method: as §1

mubritinib = compound: FC(F)(F)c1ccc(/C=C/c2nc(COc3ccc(CCCCn4ccnn4)cc3)co2)cc1 [mubritinib]
Summary of the method: as §1

crizotinib = compound: C[C@@H](Oc1cc(-c2cnn(C3CCNCC3)c2)cnc1N)c1c(Cl)ccc(F)c1Cl [crizotinib]
Summary of the method: as §1

doramapimod = compound: Cc1ccc(-n2nc(C(C)(C)C)cc2NC(=O)Nc2ccc(OCCN3CCOCC3)c3ccccc23)cc1 [doramapimod]
Summary of the method: as §1

duvelisib = compound: C[C@H](Nc1ncnc2nc[nH]c12)c1cc2cccc(Cl)c2c(=O)n1-c1ccccc1 [duvelisib]
Summary of the method: as §1

tozasertib = compound: Cc1cc(Nc2cc(N3CCN(C)CC3)nc(Sc3ccc(NC(=O)C4CC4)cc3)n2)n[nH]1 [tozasertib]
Summary of the method: as §1

Measured: log2 fold change

SMIM20 isoform 2 (UniProt Q8N5G0)
inactive: [1] -0.014 | [2] 0.126 | [3] 0.019 | gandotinib 0.068 | [4] -0.068 | ispinesib 0.089 | bafetinib -0.011 | [5] -0.011 | nilotinib -0.037 | [6] -0.001 | dasatinib 0.012 | [7] -0.102 | [8] 0.05 | [9] 0.156 | tipifarnib 0.017 | mubritinib 0.009

SMARCA4 (UniProt P51532)
inactive: [1] 0.216 | crizotinib 0.01 | [2] 0.036 | [3] 0.188 | gandotinib 0.042 | [4] -0.064 | doramapimod 0.085 | ispinesib -0.248 | bafetinib 0.149 | [5] -0.118 | dasatinib 0.118 | [8] -0.036 | [9] 0.033 | tipifarnib 0.197 | mubritinib 0.101

SPAG9 isoform 4 (UniProt O60271)
inactive: [1] 0.144 | crizotinib -0.061 | [3] 0.123 | doramapimod 0.042 | ispinesib -0.128 | bafetinib -0.301 | nilotinib 0.073 | [6] -0.118 | [7] 0.022 | [8] -0.072 | [9] 0.11 | mubritinib 0.074

SNX14 (UniProt Q9Y5W7)
inactive: [1] 0.118 | crizotinib 0.083 | [2] 0.032 | duvelisib -0.104 | tozasertib -0.03 | [4] 0.131 | doramapimod 0.062 | ispinesib 0.07 | bafetinib -0.081 | nilotinib -0.014 | [6] 0.009 | dasatinib -0.378 | [7] -0.016 | [9] -0.002 | tipifarnib -0.034 | mubritinib -0.128

SP2 (UniProt Q02086)
inactive: [1] -0.14 | crizotinib 0.083 | [4] 0.125 | doramapimod -0.06 | dasatinib 0.001

SNX1 (UniProt Q13596)
inactive: [1] -0.134 | crizotinib -0.247 | [2] 0.028 | [3] -0.025 | [4] 0.049 | doramapimod -0.009 | ispinesib -0.252 | bafetinib -0.149 | [5] 0.146 | nilotinib -0.133 | [6] 0 | dasatinib -0.191 | [8] 0.07 | [9] -0.028 | tipifarnib -0.002 | mubritinib 0.057
active: gandotinib -0.319 | [7] -0.45

SON isoform 9 (UniProt P18583)
inactive: [1] 0.14 | crizotinib -0.033 | [2] -0.241 | duvelisib -0.088 | gandotinib -0.002 | tozasertib -0.029 | [4] 0.113 | doramapimod -0.117 | ispinesib -0.146 | bafetinib 0.014 | [5] -0.084 | nilotinib 0.176 | [6] -0.335 | dasatinib 0.062 | [7] 0.146 | [9] 0.062 | tipifarnib 0

SMDT1 (UniProt Q9H4I9)
inactive: [1] 0.144 | crizotinib 0.042 | [2] 0.017 | [3] -0.035 | gandotinib -0.23 | [4] 0 | doramapimod 0.054 | bafetinib -0.138 | [5] 0.006 | dasatinib 0.005 | [8] 0.137 | mubritinib 0.068

SMAGP (UniProt Q0VAQ4)
inactive: [1] -0.175 | [2] 0.17 | [3] -0.053 | duvelisib 0.04 | tozasertib 0.031 | [4] -0.112 | bafetinib 0.053 | nilotinib 0.098 | [6] -0.038 | dasatinib -0.038 | [7] -0.07 | [8] -0.093 | tipifarnib 0.215 | mubritinib -0.048

SNRK (UniProt Q9NRH2)
inactive: [1] 0.008 | crizotinib -0.026 | [4] -0.067 | doramapimod 0.001 | dasatinib -0.061 | tipifarnib -0.079
